Out of some 330,000 compounds screened, about 7,700 (2.3%) were called active. The inconclusive results got no clear call from the source; some entries with a clear call stand among them for comparison. Calls follow the shape of the dose curve; as a rule, active = well fitted inhibition curve with a large enough effect; inconclusive = small, poorly fitted or top-dose-only effect, or effect the other way; inactive = flat fitted curve, though single readings scatter. Potencies beside an inconclusive call are fits to weak or partial responses and may not hold up.
Test: qHTS screen for small molecules that inhibit ELG1-dependent DNA repair in human embryonic kidney (HEK293T) cells expressing luciferase-tagged ELG1; also: nearly all actives have a fitted effect of over 55% in size
Conditions: HEK293T ELG1-luciferase reporter, luminescence, 16 h, DNA damage induced by 5-fluorouridine; activity change, negative = inhibition: at 46.1 µM (top of the series)
Procedure, shortened: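 Overnight (16 hr) co-exposure of 2,000 cells/well to 5-fluorouridine and compound at 37 °C preceded detection. Luciferase was quantified via ONE-Glo luminescence; loss of signal denotes inhibition.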
% is scaled to controls: 0 for no effect and ±100 for the full control effect; potency is read from the fitted curve at half-maximal effect.

SMILES | activity change, negative = inhibition | Potency
Cc1cc(C)c2nc(Cl)c(C3NC(=O)c4ccccc4N3)cc2c1 (stereo unspecified) | inactive: -11% | 
COCC(C)NC(=O)CCc1nnc(C2(c3ccc(Cl)cc3)CCC2)o1 (stereo unspecified) |  | inconclusive: 20.6 µM [activator, partial curve]
COc1ccccc1OCC(=O)Nc1cc(S(=O)(=O)N2CCOCC2)ccc1N1CCCCC1 |  | active: 25.9 µM
Cc1ccc(S(=O)(=O)N2CCOCC2)cc1C(=O)OCC(=O)NCc1ccc2c(c1)OCO2 |  | inconclusive: 20.6 µM [inhibitor, single point]
Cn1ccnc1SCC(=O)Nc1ccc2c(c1)OCCO2 |  | inconclusive: 5.8 µM [activator, partial curve]
CCCCC(=O)Nc1ccc2c(c1)oc1ccccc12 |  | inconclusive: 20.6 µM [activator, partial curve]
Cc1nn(Cc2ccc([N+](=O)[O-])cc2)c(=O)n1-c1c(F)cccc1F | inactive: 2.33% | 
O=C(N/N=C/c1cc2ccccc2[nH]1)c1ccccc1Cl | inactive: -1.14% | 
COc1ccc(NC(=O)CN(C)S(=O)(=O)c2cnc[nH]2)cc1 |  | inconclusive: 20.6 µM [activator, single point]
COc1cccc(CN2CCN(S(=O)(=O)c3ccc(NC(C)=O)cc3)CC2)c1OC |  | inconclusive: 23.1 µM [inhibitor, partial curve]
O=C(Nc1ccccc1)OCCOc1ccccc1Br |  | inconclusive: 11.6 µM [activator, partial curve]
O=C(CSc1nnc(-c2ccccc2)n1Cc1ccccc1)NNC(=O)c1ccccc1O |  | inconclusive: 32.6 µM [inhibitor, single point]
Cc1ccc(NS(=O)(=O)c2cc(NC(=O)c3ccc4c(c3)NC(=O)CS4)ccc2Cl)c(C)c1 |  | active: 23.1 µM
O=C(Nc1ccccc1N1CCOCC1)c1cccc(Oc2ccccc2)c1 | inactive: -9.92% | 
S=C1NC(c2ccccc2)=NCN1c1ccccc1 |  | inconclusive: 18.4 µM [activator, partial curve]
Cc1cc(C)c(NC(=O)CSc2nnc(SCC(=O)Nc3c(C)cc(C)cc3C)n2N)c(C)c1 |  | inconclusive: 18.4 µM [inhibitor, partial curve, poor fit]
COc1ccccc1NC(=O)c1ccc(Br)o1 |  | inconclusive: 32.6 µM [activator, single point]
CCC/C(O)=C1\C(=O)CC(C)(C)CC1=NCc1ccccc1 |  | inconclusive: 7.3 µM [inhibitor, partial curve]
CCCCC1CC(C)(C(=O)CSc2nc3ccccc3s2)OC1=O (stereo unspecified) | inactive: -13% | 
Cn1c(CNc2ccc(O)cc2)nc2ccccc21 |  | inconclusive: 18.3 µM [activator, single point]
OCCC1CN(Cc2ccccc2OC2CCCC2)CCN1Cc1ccsc1 (stereo unspecified) | inactive: 2.87% | 
O=C(COc1ccc(Cl)cc1)Nc1nnc(-c2ccc3c(c2)CCCC3)o1 |  | inconclusive: 16.4 µM [activator, partial curve]
Cn1cnc(C(=O)NC2CCN(C(=O)OC(C)(C)C)CC2)c1C(=O)NC1CCN(C(=O)OC(C)(C)C)CC1 |  | active: 10.3 µM
O=S(Cc1ccc(Cl)cc1)CC(O)(c1ccccc1)c1ccccc1 (stereo unspecified) | inactive: -6.73% | 

SMILES | activity change, negative = inhibition | Potency
O=C(NCCNCCO)c1c(O)c2cccc3c2n(c1=O)CCC3 |  | active: 6.51 µM
CCc1ccc(N(CC(=O)NCc2ccc(F)cc2)C(=O)c2csnn2)cc1 | inactive: -12.6% | 
Cc1ccc(NC(=O)CSc2nc(-c3ccco3)nc3cc(=O)[nH]n23)c(Cl)c1 |  | inconclusive: 23.1 µM [activator, partial curve, poor fit]
O=C1CC(N2CCN(c3nc4ccccc4s3)CC2)C(=O)N1Cc1cccs1 (stereo unspecified) |  | inconclusive: 5.8 µM [inhibitor, single point]
O=c1c2c3c(sc2n2c(=S)[nH]nc2n1-c1ccccc1)CCC3 | inactive: 0% | 
COc1ccccc1-c1cc(C(F)(F)F)nc(S(=O)(=O)CCCC(=O)O)n1 | inactive: 15.1% | 
COc1cccc(C(=O)Nc2nc3ccc(S(C)(=O)=O)cc3s2)c1 |  | inconclusive: 3.66 µM [activator, full curve]
COc1cccc(C2=CC(=O)C[C@H](c3ccc(F)cc3)C2)c1 |  | inconclusive: 29.1 µM [inhibitor, single point]
COc1ccccc1C(CNc1ncnc2sc(C)c(C)c12)N(C)C (stereo unspecified) | inactive: -3.52% | 
C=CCOc1ccc(/C=C2\SC(=Nc3cccnc3)NC2=O)cc1 |  | inconclusive: 0.073 µM [inhibitor, partial curve, poor fit]
Cc1cccc(OCCNc2ccc(C(F)(F)F)cc2[N+](=O)[O-])c1 |  | inconclusive: 23.1 µM [activator, single point]
N#CC(C#N)=Cc1ccc(NC(=O)c2ccc(Br)cc2)cc1 |  | inconclusive: 20.6 µM [activator, partial curve]
Cc1cnc(-c2nnc(N(C)C(=O)c3cccnc3)s2)cn1 |  | inconclusive: 20.6 µM [activator, partial curve]
O=C(NNC(=S)NC(=O)c1ccco1)c1ccc(NC(=O)c2ccccc2)cc1 |  | active: 14.6 µM
CC(=O)c1cc2c(cc1N/C(=N/S(=O)(=O)c1ccc(C)cc1)c1ccc(Cl)cc1)OCO2 | inactive: 9.27% | 
C(=C\n1nnc2ccccc21)/c1ccccn1 |  | inconclusive: 3.98 µM [activator, partial curve]
O=C(CSC(=S)N1CCOCC1)Nc1nc(=O)c2ccccc2s1 |  | inconclusive: 20.6 µM [activator, single point]
Cc1ccc(Cn2ncc3c(N4CCN(C)CC4)ncnc32)cc1 |  | inconclusive: 20.6 µM [inhibitor, single point]
COc1ccc(C(=O)Nc2ccccc2N2CCCC2)cc1S(=O)(=O)N1CCOCC1 | inactive: 14.6% | 
CCOc1ccc(OCC)c(NC(=O)CSc2nc3c(c(=O)n(C)c(=O)n3C)n2CC)c1 |  | inconclusive: 25.9 µM [inhibitor, single point]
COC(=O)C1=C(C)N(Cc2ccccc2)C(=NCc2cccc(C(F)(F)F)c2)N[C@H]1c1cccc(C(F)(F)F)c1 |  | active: 18.3 µM
Cc1ccc(S(=O)(=O)N2CCN(C(=O)c3ccc(COc4ccccc4)o3)CC2)cc1 |  | inconclusive: 16.4 µM [inhibitor, partial curve, poor fit]
COc1cc(NC(=O)c2ccc(=O)[nH]n2)cc(OC)c1OC |  | inconclusive: 18.3 µM [activator, single point]
C/C(=N\Nc1nccnc1Cl)c1c(F)c(F)c(F)c(F)c1F | inactive: -0.221% | 

SMILES | activity change, negative = inhibition | Potency
Cc1c(C(=O)NC2CCCCC2C)oc2ccccc12 (stereo unspecified) |  | inconclusive: 18.3 µM [activator, partial curve, poor fit]
CC1CCN(C(=O)CSc2nnc(-c3ccco3)o2)CC1 |  | inconclusive: 18.4 µM [activator, single point]
O=C(CCCC(=O)N(CC(=O)NC1CCCCC1)c1ccccc1F)Nc1ccccn1 | inactive: 2.23% | 
O=C(N/N=C/c1cc(O)ccc1Br)c1cccnc1 |  | inconclusive: 5.17 µM [inhibitor, partial curve]
Cc1ccc(Cn2ncc3c(N4CCN(CCc5ccccc5)CC4)ncnc32)cc1 |  | active: 3.66 µM
N/C(=N/OC(=O)c1ccccc1Cl)c1nonc1N | inactive: 0% | 
Cc1ccc(S(=O)(=O)N2CCCC(C(=O)NCc3ccccn3)C2)cc1 (stereo unspecified) | inactive: 6.79% | 
O=C(NCCc1ccccc1)c1ccc2nc(-c3ccco3)c(-c3ccco3)nc2c1 |  | inconclusive: 18.4 µM [inhibitor, single point]
O=C1CC(c2cc(-c3ccccc3)no2)C1 |  | inconclusive: 23.1 µM [activator, partial curve]
CC(=O)N1CCCN(C(=O)c2cc(COc3c(F)cccc3F)on2)CC1 | inactive: -16.7% | 
c1ccc(-c2nnc3sc(CN4CCc5ccccc54)cn23)cc1 | inactive: -5.71% | 
Cc1ccccc1NC(=O)Nc1ccc2c(c1)OCO2 |  | inconclusive: 8.2 µM [activator, partial curve]
CCOC(=O)c1sc(N)c(C#N)c1CSc1nnc(C2CCCCC2)n1N |  | inconclusive: 23.1 µM [inhibitor, single point]
CCN1CCN(c2ccc(NC(=O)c3cccc(N4CCCC4=O)c3)cc2)CC1 |  | inconclusive: 20.6 µM [activator, partial curve]
CCNC(=O)CSc1nc2cc(OC)c(OC)cc2c(=O)n1CCC1=CCCCC1 |  | inconclusive: 28.2 µM [activator, partial curve, poor fit]
CCc1ccc(C(=O)N/N=C/c2ccncc2)s1 |  | inconclusive: 20.6 µM [activator, partial curve]
CC[C@H](C)[C@H](NC(=O)c1ccc(Cl)cc1)C(=O)OCC(=O)c1c(N)n(C)c(=O)n(C)c1=O |  | inconclusive: 8.2 µM [inhibitor, partial curve, poor fit]
CCOC(=O)c1ccc(N2C(=O)c3n[nH]c(C)c3C2c2ccc(OC)c(OC)c2)cc1 (stereo unspecified) |  | inconclusive: 18.4 µM [inhibitor, partial curve]
CCOC(=O)N1CCN(c2ncnc3c2[nH]c2ccc(OC)cc23)CC1 |  | inconclusive: 29.1 µM [inhibitor, single point]
COc1ccc([N+](=O)[O-])cc1Nc1c2ccccc2nc2ccccc12 | inactive: -27.2% | 
CCN(C(=O)CN1C(=O)/C(=C/c2ccc(F)cc2)SC1=S)C1CCS(=O)(=O)C1 (stereo unspecified) |  | inconclusive: 18.3 µM [inhibitor, partial curve, poor fit]
O=C1CCC(=O)N1CCCCCc1nc(-c2ccccc2)no1 |  | inconclusive: 18.4 µM [activator, partial curve]
CCOC(=O)c1[nH]c(C)c(C(=O)Nc2ccccc2C)c1C |  | inconclusive: 25.9 µM [activator, single point]

Reference: PubChem BioAssay AID504467 (National Center for Advancing Translational Sciences (NCATS), 2011)
